Patent US5739291A, “Glutamate receptor antibodies” (The Salk Institute For Biological Studies, priority 1995, dated 1998)
For at least one compound, name, drawing or mass did not settle the structure.

The chains behind the UniProt entries cited, without tags or fusion partners. Residues count along the entry.
UniProt P19490, 19-907 S67T/A248R/S789T: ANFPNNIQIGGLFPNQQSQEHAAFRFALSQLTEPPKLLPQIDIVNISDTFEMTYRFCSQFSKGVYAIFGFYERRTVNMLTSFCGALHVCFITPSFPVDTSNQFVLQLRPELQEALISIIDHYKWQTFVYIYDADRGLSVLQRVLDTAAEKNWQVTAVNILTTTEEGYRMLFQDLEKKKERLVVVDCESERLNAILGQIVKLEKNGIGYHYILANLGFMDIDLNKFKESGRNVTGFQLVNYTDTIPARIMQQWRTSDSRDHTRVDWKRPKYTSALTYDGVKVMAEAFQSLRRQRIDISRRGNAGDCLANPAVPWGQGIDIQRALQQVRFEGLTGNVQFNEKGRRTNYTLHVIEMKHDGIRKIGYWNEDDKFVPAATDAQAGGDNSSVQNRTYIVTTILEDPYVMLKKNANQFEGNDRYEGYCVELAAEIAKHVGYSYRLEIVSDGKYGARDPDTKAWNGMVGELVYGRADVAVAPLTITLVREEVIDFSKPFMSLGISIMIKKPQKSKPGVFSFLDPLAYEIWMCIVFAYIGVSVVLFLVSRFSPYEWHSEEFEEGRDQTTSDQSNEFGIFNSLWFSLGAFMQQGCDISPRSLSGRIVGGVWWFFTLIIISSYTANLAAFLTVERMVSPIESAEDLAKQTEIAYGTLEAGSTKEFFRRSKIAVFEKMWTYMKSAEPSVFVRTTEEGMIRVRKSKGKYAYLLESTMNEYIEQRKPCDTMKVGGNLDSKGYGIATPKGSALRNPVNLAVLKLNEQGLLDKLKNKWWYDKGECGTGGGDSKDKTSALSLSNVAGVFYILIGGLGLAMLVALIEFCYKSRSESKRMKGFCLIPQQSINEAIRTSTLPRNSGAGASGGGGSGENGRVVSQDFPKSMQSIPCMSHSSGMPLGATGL

Biological target: T1, GluR1 (Rattus norvegicus, UniProt P19490)
T1 construct: expressed in transfected cells; host or cells: Xenopus oocytes injected with GluR1 in vitro sense RNA
Experiment: Voltage-clamp recording in Xenopus oocytes injected with GluR1 in vitro RNA
Type: cell-based
Details: each at 1 mM
Source text: Either a λZAP cDNA preparation, or a plasmid containing the cDNA to be tested, are cut downstream from the cDNA insert with a restriction enzyme. The post-restriction digest is digested with Proteinase K and then extracted with two phenol: chloroform (1:1) extractions. The resulting DNA fragments are then ethanol precipitated. The precipitated fragments are mixed with either T3 RNA polymerase (to make sense strand), or T7 RNA polymerase (to make anti-sense strand), plus rATP, rCTP, rGTP, rUTP, and RNase inhibitor. Simultaneously, the RNA transcripts are capped with a sodium diguanosine triphosphate [G(5')ppp(5')G] cap. The water used for the above procedures is treated with diethylpyrocarbonate to inactivate RNases.
The in vitro synthesized mRNA transcripts are injected into Xenopus oocytes. 50 nl of an RNA solution, 0.2-0.6 mg/ml, is injected into the stage V oocytes. The injected oocytes are incubated at 16° C. in Barth's medium for 2-7 days before they are analyzed for the presence of functional receptors. […]
currents were recorded; each number represents the average of 3 recording […]
The data in FIG. 3B represent the responses of oocytes to the indicated agonists measured 3 days after injection with GluR1 (2 ng) or GluR3 (2 ng) RNA or adult rat brain hippocampus poly(A)^+ RNA (~50 ng). […]

Compound: N[C@H](CCC(=O)NCS(=O)(=O)O)C(=O)O [GAMS, D-glutamylamino-methyl-sulphonate]
- inhibition of kainate-evoked depolarizations (in words): inhibited kainate responses
